Literature values in patent publication US11744789B2, “Method for dyeing keratinous material, comprising the use of an organosilicon compound, a colored effect pigment and a sealing reagent III” (Henkel AG & Co. KGaA, priority 2019, dated 2023).

Conditions: 25° C.

solubility in water: more than 20 % by weight
Compound: CCN(Cc1cccc(S(=O)(=O)O)c1)c1ccc(C(=C2C=CC(=[N+](CC)Cc3cccc(S(=O)(=O)O)c3)C=C2)c2ccccc2S(=O)(=O)[O-])cc1 [Acid Blue 9]
